Results reported in PMC12691643.

B1: Nckap1l (Hem1), endogenous in murine DC2.4 cells (protein, UniProt Q8K1X4 1-1134)
chain: MSLTSAYQLKLAEKLTILNDRGQGVLIRMYNIKKTCSDSKSKPPFLLEKSMESCLKYINKKFPNIDVRNSTQHLGPVHREKAEIIRFLTNYYQSFVDVMEFRDHVYELLNTIDACQCHFDINLNFDFTRSYLDLIVTYTSVILLLSRIEDRRILIGMYNCAHEMLHGHSDPSFARLGQMVLEYDHPLKKLTEEFGPHTKAVSGALLSLHFLFVRRNQGAEQWRSAQLLSLISSPPAMINPANSDTMACEYLSVEVMERWIIIGFLLCHGCLNSNSQCQKLWKLCLEGSLYITLIREDVLQVHKVTEDLFSSLKGYSKRVADIKESKEHAITNSGQFHCQRRQFLRTAVKELETVLNDEPGLLGPKALFAFMALSFIRDEVTWLVRHTENVTKTKTPEDYADSSIAELLFLLEEIRALVRRHIKVIQQYHLQYLARFDVLVLSDIIQNLSVCPEEESVIMSSFVSILSSLNLKQVDNEEKFDFSGLRLDWFRLQAYTSVSKAPLHLHENPDLAKVMNLIIFHSQMLDSVEKMLVETSDLSTFCFHLRTFEKMFATTLEEPTMLRYTIAFPLICAHFVHCVHEMCPEEYPHLKNHGLHHCNSFLEDLAKQTSNCVLEICAEQRNLNEQLLPKHCATTISKAKNKKSMKQRQAPRKGEPERDKPGAESHRKNRSLVTNMDKLHLNLTELALAMNHVHSFSVFEHTIFPSEYLSSHLEARLNRAIVTLAGYNATTQEILRPSELLAGVKAYISFIQSLAQFLGADASRIVRNALLQQTQPLDSSGEQTVTTLYTNWYLESLLRQASSGAIVLSPAMQAFISLPRDGEQNFSAEEFSDISEMRALAEILGPYGMKFLSENLMWHVTSQIVELKKLVVENMDILVQIRSNFSKPELMASLLPQLTGAENVLKRMTIIGVILSFRAMAQEGLQEVFSAHCPFLMGPIECLKEFVTPDTDIKVTLSVFELACAAGVSCDIDPALVAAIANLKADNSSPEEEYKVACLLLIFLAVSLPLLATDPSSFFSIEKDGYNNNIHCLTKAIIQVSAALFTLYNKNIETHLKEFLVVASVSLLQLGQETDKLKTRNRESISLLMRLVVEESPFLTLDMLESCFPYVLLRNAYREVSRAFYLNRLPASSH
B2: Git1, endogenous in murine DC2.4 cells (protein, UniProt Q68FF6 1-770)
chain: MSRKGPRAEVCADCSAPDPGWASISRGVLVCDECCSVHRSLGRHISIVKHLRHSAWPPTLLQMVHTLASNGANSIWEHSLLDPAQVQSGRRKANPQDKVHPIKSEFIRAKYQMLAFVHKLPCRDDDGVTAKDLSKQLHSSVRTGNLETCLRLLSLGAQANFFHPEKGTTPLHVAAKAGQTLQAELLVVYGADPGSPDVNGRTPIDYARQAGHHELAERLVECQYELTDRLAFYLCGRKPDHKNGHYIIPQMADRSRQKCMSQSLDLSELAKAAKKKLQALSNRLFEELAMDVYDEVDRRENDAVWLATQNHSTLVTERSAVPFLPVNPEYSATRNQGRQKLARFNAREFATLIIDILSEAKRRQQGKSLSSPTDNLELSARSQSELDDQHDYDSVASDEDTDQEPLPSAGATRNNRARSMDSSDLSDGAVTLQEYLELKKALATSEAKVQQLMKVNSSLSDELRRLQREIHKLQAENLQLRQPPGPVPPPSLPSERAEHTLMGPGGSTHRRDRQAFSMYEPGSALKPFGGTPGDELATRLQPFHSTELEDDAIYSVHVPAGLYRIRKGVSASSVPFTPSSPLLSCSQEGSRHASKLSRHGSGADSDYENTQSGDPLLGLEGKRFLELSKEDELHPELESLDGDLDPGLPSTEDVILKTEQVTKNIQELLRAAQEFKHDSFVPCSEKIHLAVTEMASLFPKRPALEPVRSSLRLLNASAYRLQSECRKTVPPEPGAPVDFQLLTQQVIQCAYDIAKAAKQLVTITTREKKQ
B3: Sh3rf1, endogenous in murine DC2.4 cells (protein, UniProt Q69ZI1 1-892)
chain: MDESALLDLLECPVCLERLDASAKVLPCQHTFCKRCLLGIVGSRNELRCPECRTLVGSGVDELPSNILLVRLLDGIKQRPWKPGPGGGGGTTCTNTLRAQGSTVVNCGSKDLQSSQCGQQPRVQAWSPPVRGIPQLPCAKALYNYEGKEPGDLKFSKGDIIILRRQVDENWYHGEVSGVHGFFPTNFVQIIKPLPQPPPQCKALYDFEVKDKEADKDCLPFAKDDVLTVIRRVDENWAEGMLADKIGIFPISYVEFNSAAKQLIEWDKPPVPGVDTAECPSATAQSTSASKHPDTKKNTRKRHSFTSLTMANKSSQGSQNRHSMEISPPVLISSSNPTAAARISELSGLSCSAPSQVHISTTGLIVTPPPSSPVTTGPAFTFPSDVPYQAALGSMNPPLPPPPLLAATVLASTPSGATAAVAAAAAAAAAAGMGPRPVMGSSEQIAHLRPQTRPSVYVAIYPYTPRKEDELELRKGEMFLVFERCQDGWYKGTSMHTSKIGVFPGNYVAPVTRAVTNASQAKVSMSTAGQASRGVTMVSPSTAGGPTQKPQGNGVAGNPSVVPTAVVSAAHIQTSPQAKVLLHMSGQMTVNQARNAVRTVAAHSQERPTAAVTPIQVQNAACLGPASVGLPHHSLASQPLPPMAGPAAHGAAVSISRTNAPMACAAGASLASPNMTSAMLETEPSGRTVTILPGLPTSPESAASACGNSSAGKPDKDSKKEKKGLLKLLSGASTKRKPRVSPPASPTLDVELGAGEAPLQGAVGPELPLGGSHGRVGSCPTDGDGPVAAGTAALAQDAFHRKTSSLDSAVPIAPPPRQACSSLGPVMNEARPVVCERHRVVVSYPPQSEAELELKEGDIVFVHKKREDGWFKGTLQRNGKTGLFPGSFVENI
B4: Abi3, endogenous in murine DC2.4 cells (protein, UniProt Q8BYZ1 1-367)
chain: MAELQQLQQLQEFDIPTGREALRGNHSALLRVANYCEDNYLQATDKRKALEETMAFTTQALASVAYQVGNLAGHTLRMLDLQGAALRQVEAKMSTLGQMVNMHMEKVARREIGTLATVVRLPSNQKVIPPESLPSLTPYHRKPLNFACLDDIGHGVKDLSTQLSRTGTLSRKSIKAPATPVSATLGRPPRIPEPVQLPAVPDGKLSAASSASSLASAGSAEGASGIPQSKGQVAPATPPPPPVAPVTPPPPPLSAEVFLPPPPLEVSQPPLEAELPLPPPPALEGDELGLLPPPPPGFGPDEPSWVPASYLEKVVTLYPYTRQKDNELSFSEGTVICVTRRYSDGWCEGVSSEGTGFFPGNYVEPSC
B5: Brk1 (Hspc300), endogenous in murine DC2.4 cells (protein, UniProt Q91VR8 1-75)
chain: MAGQEDPVQREIHQDWANREYIEIITSSIKKISDFLNSFDMSCRSRLATLNEKLTALERRIEYIEARVTKGETLT
B6: Nostrin, endogenous in murine DC2.4 cells (protein, UniProt Q6WKZ7 1-506)
chain: MRDPLTDCSYNKVYKSLKEFAQHGDNFCKQITSVLQQRANLEISYAKGLQKLAVRLSKALQSTKKNCLSTAWAWASESMKSAADLHQKLGKAIELEAIKPTHQVLSMQEKKRKSLDNEVEKTANLVINNWNQQIKAKKKLMMSTKKHEALFHLVESSKQSLTQKEKQKLLNKLKKSTEKLEKEDESYYQKNMAGYSTRLKWESTLENCYKSMLELEKERIQLLCNNLNQYSQHISLFGQTLTTCHTQIHCAISKVDVEKDIQALMEETAILSIENKSELLLADYFEEDPKNPMDKERRKSLLKPKLGRLQRDIEKASRDKEGLERKLKALASSSSFSDAKSQKDMETLMDENSLKLDLLQANSYKLSSVLADLEQRPKPCHPCSTCIFKWKEKEHSHTYVKISRPLLTKRLEKAESKAPAGGQNNPSSSPSGSTVSQASKHLCKALYTFQARQDDELNLEKGDIVTVHEKKEEGWWFGSLKGKRGHFPAAYVEELPPKAGNTATQA

Biological target: TgWIP^WT, wild-type Toxoplasma WAVE complex-interacting protein with a C-terminal HA tag (Toxoplasma gondii)
Assay: affinity purification with mass spectrometry; HA-tagged TgWIP variants pulled down by the HA tag from lysates of DC2.4 cells infected 4 h at MOI 7; host partners by mass spectrometry; values are negative fold changes in peptide counts of the mutant immunoprecipitations relative to TgWIP^WT

Binder	binding
B1	binds
B2	binds
B3	binds
B4	binds
B5	binds
B6	binds

No constants are given. Whether binding was seen depends on the method and setting. In cells and extracts the contact can be indirect. Here binding means that the protein was enriched with, or labelled near, the bait; the list need not be complete.
